PubChem BioAssay AID1259308, NCATS – 2017
This is an unselected part of about 59,000 reagents. Over the whole deposit, about 1,510 (2.6%) are marked active. 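Calls use total luciferase alone and ignore viability, so some active siRNAs may act by altering cell number.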 Reagents against one gene are numbered here. Not all columns of the deposit are shown.

Assay: 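Genes whose loss raises luciferase production in HEK293 cells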 (primary screen)
Cells: human HEK293 embryonic kidney cells stably expressing firefly luciferase (HEK-CMV-Luc2-Hygro)
Reagent: single siRNA against human genes, 0.8 pmol siRNA per well
Time to read-out: 72 h
Measured: 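Reporter luminescence and viable-cell signal on separate replicate plates, given as percent of non-targeting control and median/MAD z-scores, plus per-cell luciferase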
Reading the numbers: total luciferase, z-score and total luciferase, % of control: higher = more reporter protein produced; luciferase per cell, z-score: higher = more reporter output per viable cell
Active means: 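An siRNA counts as active if its total luciferase robust z-score exceeds 3; genes with two or more such siRNAs out of three were retested with fresh siRNAs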
Calls: active = raised luciferase; inactive = no rise

Gene | reagent no. | total luciferase, z-score | total luciferase, % of control | luciferase per cell, z-score | call
DTYMK | 1 | 1.63 | 114 | 2.49 | inactive
DTYMK | 2 | 1.64 | 115 | 1.61 | inactive
DTYMK | 3 | 0.202 | 85.9 | -0.0238 | inactive
SLC22A7 | 1 | -0.794 | 66.1 | -1.07 | inactive
SLC22A7 | 2 | -1.17 | 58.6 | -1.55 | inactive
SLC22A7 | 3 | -0.63 | 69.3 | -0.727 | inactive
UNC119 | 1 | 1.11 | 104 | 1.22 | inactive
UNC119 | 2 | -2.64 | 29.5 | -3.32 | inactive
UNC119 | 3 | 0.426 | 90.4 | -0.0191 | inactive

No new results follow: 4 of the entries above.
Gene | reagent no. | total luciferase, z-score | total luciferase, % of control | luciferase per cell, z-score | call
DTYMK | 1 | 1.63 | 114 | 2.49 | inactive
DTYMK | 2 | 1.64 | 115 | 1.61 | inactive
DTYMK | 3 | 0.202 | 85.9 | -0.0238 | inactive
SLC22A7 | 1 | -0.794 | 66.1 | -1.07 | inactive

The listing continues.
Gene | reagent no. | total luciferase, z-score | total luciferase, % of control | luciferase per cell, z-score | call
DNAAF11 | 1 | -0.0958 | 80 | -0.672 | inactive
DNAAF11 | 2 | -0.34 | 75.1 | -0.466 | inactive
DNAAF11 | 3 | 0.127 | 84.4 | 0.0545 | inactive
NRCAM | 1 | 0.868 | 99.2 | 1.03 | inactive
NRCAM | 2 | -0.8 | 66 | -0.683 | inactive
NRCAM | 3 | 1.79 | 117 | 2.21 | inactive
ENTREP3 | 1 | 0.492 | 91.7 | 0.288 | inactive
ENTREP3 | 2 | 0.119 | 84.2 | -0.094 | inactive
ENTREP3 | 3 | 2.63 | 134 | 2.53 | inactive
CLEC4C | 1 | -2.26 | 36.9 | -2.05 | inactive
CLEC4C | 2 | -1.36 | 54.8 | -1.37 | inactive
CLEC4C | 3 | 0.178 | 85.4 | 0.21 | inactive
SOHLH2 | 1 | -0.549 | 71 | -0.341 | inactive
SOHLH2 | 2 | 0.614 | 94.1 | 1.04 | inactive
SOHLH2 | 3 | -0.211 | 77.7 | -0.393 | inactive
